No constants are given. Whether binding was seen depends on the method and setting. Binding seen in cells or lysates may run through a third protein. Some binding calls cover weakened binding; strength is not graded here. Where a sequence is shown, tags or fusion partners need not be part of it.

The assay concerns the target T1, V5-tagged α4 (UniProt P78318).
T1 sequence: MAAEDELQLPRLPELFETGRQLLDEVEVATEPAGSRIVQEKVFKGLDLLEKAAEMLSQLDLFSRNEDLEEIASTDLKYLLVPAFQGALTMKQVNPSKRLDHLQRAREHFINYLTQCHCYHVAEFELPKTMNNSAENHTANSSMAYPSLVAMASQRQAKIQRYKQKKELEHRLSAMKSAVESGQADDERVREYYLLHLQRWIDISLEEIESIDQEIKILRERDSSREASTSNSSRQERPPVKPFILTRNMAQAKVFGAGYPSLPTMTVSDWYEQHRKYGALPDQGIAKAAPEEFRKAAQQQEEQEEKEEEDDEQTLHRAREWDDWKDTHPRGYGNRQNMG
The assay is described as follows: co-IP; FLAG-MID1 and α4-V5 co-expressed in HEK293T; lysate in IP-buffer (50 mM Tris pH 7.5, 2.5 mM MgCl2, 100 mM NaCl, 1 mM DTT); precipitated with V5 antibodies and Protein A-Agarose; immunoprecipitates incubated with or without 100 µM resveratrol for 2 hours and washed; blots with FLAG and V5 antibodies.

B1: FLAG-tagged MID1 (protein, UniProt O15344-1 1-667)
chain: METLESELTCPICLELFEDPLLLPCAHSLCFNCAHRILVSHCATNESVESITAFQCPTCRHVITLSQRGLDGLKRNVTLQNIIDRFQKASVSGPNSPSETRRERAFDANTMTSAEKVLCQFCDQDPAQDAVKTCVTCEVSYCDECLKATHPNKKPFTGHRLIEPIPDSHIRGLMCLEHEDEKVNMYCVTDDQLICALCKLVGRHRDHQVAALSERYDKLKQNLESNLTNLIKRNTELETLLAKLIQTCQHVEVNASRQEAKLTEECDLLIEIIQQRRQIIGTKIKEGKVMRLRKLAQQIANCKQCIERSASLISQAEHSLKENDHARFLQTAKNITERVSMATASSQVLIPEINLNDTFDTFALDFSREKKLLECLDYLTAPNPPTIREELCTASYDTITVHWTSDDEFSVVSYELQYTIFTGQANVVSLCNSADSWMIVPNIKQNHYTVHGLQSGTKYIFMVKAINQAGSRSSEPGKLKTNSQPFKLDPKSAHRKLKVSHDNLTVERDESSSKKSHTPERFTSQGSYGVAGNVFIDSGRHYWEVVISGSTWYAIGLAYKSAPKHEWIGKNSASWALCRCNNNWVVRHNSKEIPIEPAPHLRRVGILLDYDNGSIAFYDALNSIHLYTFDVAFAQPVCPTFTVWNKCLTIITGLPIPDHLDCTEQLP
As for B1, the binding result was “binds”.
